At least one structure is not confirmed: it was looked up by name or label, or the drawing left a doubt.
What was measured:
[1] = system: N9 murine microglial cells; assay: LPS-induced microglial activation in vitro, TNF-α production by ELISA; assay type: cell-based, mouse; conditions: 500 nM nilvadipine, no LPS
Protocol: Microglial activation is determined by TNF-α production (pg/ml) measured by ELISA;
N9 murine micoglial cells are well characterized scavenger murine microglial clones derived from embryonic mouse brain. The extent of microglial activation was determined by TNF-α production (pg/ml) measured by ELISA.

[2] = system: human neuronal progenitor cells (HNPC); assay: Aβ neurotoxicity, LDH release from cells treated with pre-aggregated Aβ1-40; assay type: cell-based; conditions: 10 nM nilvadipine along with 30 μM AgAβ, three days
Protocol: Neurotoxicity is assessed by measuring the amount of lactic dehydrogenase (LDH) released from cells;
HNPC cells differentiate into neurons readily upon treatment with cyclic AMP. Cyclic AMP (1 mM) (Sigma) was added to the culture medium and the HNPC cells were incubated at 37° C. for 48 hours or more under serum free conditions. […] Neurotoxicity was assessed by measuring the amount of lactic dehydrogenase (LDH; an intracellular enzyme found in all cells) released from the cells.

COC(=O)C1=C(C#N)NC(C)=C(C(=O)OC(C)C)C1c1cccc([N+](=O)[O-])c1 (centres unmarked) [nilvadipine, isopropyl-3-methyl-2-cyano-1,4-dihydro-6-methyl-4-(m-nitrophenyl)-3,5-pyridine-dicarboxylate]
TNF-α production (change versus 50 nM) [1]: did not change | change in LDH release [2]: no change

From patent US7732467B2, “Method for reducing amyloid deposition, amyloid neurotoxicity and microgliosis” (Alzheimer's Institute of America, Inc., priority 2003, dated 2010)
